Values from PubChem BioAssay AID1224828 (NIAID, 2016)

Assay: 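Find genes required for NF-kappaB p65 moving into the nucleus after LPS in mouse macrophages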 (primary screen)
System: mouse RAW264.7 G9 macrophage reporter cells (GFP-p65, Tnf promoter-mCherry)
Reagent: siRNA pool against mouse genes, 100 nM
Duration: 2 days siRNA transfection, then 40 min LPS before fixation
Challenge: LPS (Salmonella minnesota R595) at 10 ng/ml
Read-out: 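Imaged p65 nuclear translocation ratio, normalised to the plate median, converted to robust z-scores and averaged across two replicates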
Scale: p65 translocation robust z-score: higher = more nuclear NF-kappaB p65 after LPS than the plate median; nuclear/cytoplasmic p65 ratio: higher = more nuclear NF-kappaB p65
Hit rule: 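Called active when z exceeds 3.3 or falls under -1.56 (median of Tlr4 controls), giving activity score of at least 50; no calls for control wells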
Meaning of the calls: active = hit (p65 shift raised or lowered); inactive = no clear change
In all, the deposit lists about 17,000 reagents; below is a random part of them. 762 of all reagents (4.5%) count as active. 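Active calls include both raised and lowered p65 entry, mostly lowered; wells with fewer than 50 cells lack a z-score.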 Raw values are not corrected between plates. The numbers tell different reagents against one gene apart. Reagent sequences are not shown.

| gene knocked down | pool no. | p65 translocation robust z-score | nuclear/cytoplasmic p65 ratio, rep 1 | nuclear/cytoplasmic p65 ratio, rep 2 | low cell count flag | Call |
| --- | --- | --- | --- | --- | --- | --- |
| Tmem72 (transmembrane protein 72) | 1 | – | 1.25 | 1.54 | fewer than 50 cells per well; well left out of scoring | inactive |
| BC043934 (cDNA sequence BC043934) | 1 | 0.75 | 1.46 | 1.7 | enough cells to score | inactive |
| Steap1 (six transmembrane epithelial antigen of the prostate 1) | 1 | 0.17 | 1.47 | 1.23 | enough cells to score | inactive |
| Lcn5 (lipocalin 5) | 1 | 0.99 | 1.69 | 1.56 | enough cells to score | inactive |
| Nt5c1b (5'-nucleotidase, cytosolic IB) | 1 | 0.24 | 1.83 | 1.5 | enough cells to score | inactive |
| Plppr4 (phospholipid phosphatase related 4) | 1 | – | 1.66 | 1.74 | fewer than 50 cells per well; well left out of scoring | inactive |
| A230059G12Rik (RIKEN cDNA A230059G12 gene) | 1 | 1.53 | 1.37 | 1.74 | enough cells to score | inactive |
| Rpl19 (ribosomal protein L19) | 1 | – | 1.06 | 1.09 | fewer than 50 cells per well; well left out of scoring | inactive |
| B230325K18Rik (RIKEN cDNA B230325K18 gene) | 1 | -0.36 | 1.56 | 1.45 | enough cells to score | inactive |
| Prpf38a | 1 | – | 1.36 | 1.59 | fewer than 50 cells per well; well left out of scoring | inactive |
| Kcna3 | 1 | 0.39 | 1.52 | 1.44 | enough cells to score | inactive |
| Msx2 (msh homeobox 2) | 1 | -0.47 | 1.42 | 1.24 | enough cells to score | inactive |
| Grm2 (glutamate receptor, metabotropic 2) | 1 | 1.15 | 1.59 | 1.83 | enough cells to score | inactive |
| Gde1 (glycerophosphodiester phosphodiesterase 1) | 1 | – | 1.62 | 1.4 | fewer than 50 cells per well; well left out of scoring | inactive |
| Spats1 (spermatogenesis associated, serine-rich 1) | 1 | 0.02 | 1.45 | 1.21 | enough cells to score | inactive |
| Tubb3 (tubulin, beta 3 class III) | 1 | 0.1 | 1.55 | 1.5 | enough cells to score | inactive |
| Dhx40 (DEAH-box helicase 40) | 1 | 0.35 | 1.52 | 1.41 | enough cells to score | inactive |
| Ccdc59 (coiled-coil domain containing 59) | 1 | 1.05 | 1.67 | 2.03 | enough cells to score | inactive |
| Ell2 (elongation factor for RNA polymerase II 2) | 1 | – | 1.55 | 1.37 | fewer than 50 cells per well; well left out of scoring | inactive |
| B3gnt4 | 1 | 1.83 | 1.8 | 1.84 | enough cells to score | inactive |
| Gys1 (glycogen synthase 1, muscle) | 1 | -0.44 | 1.36 | 1.33 | enough cells to score | inactive |
| Gys1 (glycogen synthase 1, muscle) | 2 | -0.46 | 1.69 | 1.37 | enough cells to score | inactive |
| Or5an1 (olfactory receptor family 5 subfamily AN member 1) | 1 | -0.49 | 1.51 | 1.38 | enough cells to score | inactive |
| Or5an1 (olfactory receptor family 5 subfamily AN member 1) | 2 | 0.8 | 1.69 | 1.56 | enough cells to score | inactive |
| Or4z4 (olfactory receptor family 4 subfamily Z member 4) | 1 | 0.14 | 1.59 | 1.48 | enough cells to score | inactive |
| Or10h1 (olfactory receptor family 10 subfamily H member 1) | 1 | 0.11 | 1.53 | 1.71 | enough cells to score | inactive |
| Uts2 (urotensin 2) | 1 | – | 2.1 | 0.913 | fewer than 50 cells per well; well left out of scoring | inactive |
| Myog (myogenin) | 1 | – | 1.21 | 1.31 | fewer than 50 cells per well; well left out of scoring | inactive |
| Magea2 (MAGE family member A2) | 1 | 1.2 | 1.78 | 1.83 | enough cells to score | inactive |
| Plekhh2 (pleckstrin homology, MyTH4 and FERM domain containing H2) | 1 | 0.58 | 1.77 | 1.7 | enough cells to score | inactive |
| Gstp1 (glutathione S-transferase, pi 1) | 1 | -0.17 | 1.27 | 1.49 | enough cells to score | inactive |
| Serpinh1 (serine (or cysteine) peptidase inhibitor, clade H, member 1) | 1 | 0.03 | 1.39 | 1.73 | enough cells to score | inactive |
| H3f3b (H3.3 histone B) | 1 | 0 | 1.42 | 1.39 | enough cells to score | inactive |
| Inpp4b (inositol polyphosphate-4-phosphatase, type II) | 1 | -0.4 | 1.41 | 1.34 | enough cells to score | inactive |
| Dok2 (docking protein 2) | 1 | 0.15 | 1.52 | 1.38 | enough cells to score | inactive |
| Mix23 (mitochondrial matrix import factor 23) | 1 | -0.15 | 1.48 | 1.77 | enough cells to score | inactive |
| Defa-rs2 (defensin, alpha, related sequence 2) | 1 | 0.08 | 1.45 | 1.39 | enough cells to score | inactive |
| H1f10 (H1.10 linker histone) | 1 | 1.5 | 1.07 | 1.77 | enough cells to score | inactive |
| Aox4 (aldehyde oxidase 4) | 1 | -0.61 | 1.49 | 1.55 | enough cells to score | inactive |
| Slc2a4 | 1 | 0.42 | 1.63 | 1.53 | enough cells to score | inactive |
| Tmem132c (transmembrane protein 132C) | 1 | – | 1.01 | 0.724 | fewer than 50 cells per well; well left out of scoring | inactive |
| Adm2 (adrenomedullin 2) | 1 | 1.38 | 1.87 | 1.84 | enough cells to score | inactive |
| Vcf1 (VCP nuclear cofactor family member 1) | 1 | -1.27 | 1.35 | 1.61 | enough cells to score | inactive |
| Abcd1 (ATP-binding cassette, sub-family D member 1) | 1 | 0.11 | 1.63 | 1.62 | enough cells to score | inactive |
| Th (tyrosine hydroxylase) | 1 | 0.46 | 1.62 | 1.55 | enough cells to score | inactive |
| Cstb (cystatin B) | 1 | -2.21 | 1.22 | 1.05 | enough cells to score | active |
| Ttll13 (tubulin tyrosine ligase-like family, member 13) | 1 | – | 1.69 | 1.7 | fewer than 50 cells per well; well left out of scoring | inactive |
| Sln (sarcolipin) | 1 | – | 1.4 | 1.36 | fewer than 50 cells per well; well left out of scoring | inactive |
| Hcn2 (hyperpolarization-activated, cyclic nucleotide-gated K+ 2) | 1 | -0.37 | 1.37 | 1.34 | enough cells to score | inactive |
| Ska1 (spindle and kinetochore associated complex subunit 1) | 1 | – | 1.32 | 1.39 | fewer than 50 cells per well; well left out of scoring | inactive |
| Or8g2b (olfactory receptor family 8 subfamily G member 2B) | 1 | – | 1.66 | 1.37 | fewer than 50 cells per well; well left out of scoring | inactive |
| Bcl2 (B cell leukemia/lymphoma 2) | 1 | -1.07 | 1.42 | 1.49 | enough cells to score | inactive |
| Thap12 (THAP domain containing 12) | 1 | -1.15 | 1.42 | 1.19 | enough cells to score | inactive |
| Tasp1 (taspase, threonine aspartase 1) | 1 | – | 1.21 | 1.39 | fewer than 50 cells per well; well left out of scoring | inactive |
| Gzmk (granzyme K) | 1 | 1.01 | 1.79 | 1.7 | enough cells to score | inactive |
| Or4c3 (olfactory receptor family 4 subfamily C member 3) | 1 | 1.07 | 1.67 | 1.29 | enough cells to score | inactive |
| Zbtb7b (zinc finger and BTB domain containing 7B) | 1 | -0.98 | 1.45 | 1.3 | enough cells to score | inactive |
| Sdf2l1 (stromal cell-derived factor 2-like 1) | 1 | 1.19 | 1.52 | 1.4 | enough cells to score | inactive |
| Vmn1r75 (vomeronasal 1 receptor 75) | 1 | – | 1.51 | 1.21 | fewer than 50 cells per well; well left out of scoring | inactive |
